For at least one compound, name, drawing or mass did not settle the structure.
Experiments:
VEGF mRNA = test: Stretch-induced VEGF mRNA expression in bovine retinal pericytes (Northern blot); format: cell-based; conditions: BRPC; for effect on stretch-induced VEGF mRNA expression: 9%/60 cpm cyclic stretch, PD98059 20 uM, GF109203X 5 uM, wortmannin 100 nM, LY294002 50 uM; for effect on basal VEGF mRNA expression: unstretched
Method: To determine the mechanism by which stretch increased VEGF mRNA expression, inhibitors of MEK1 (PD98059, 20 uM), classical/novel PKC isoforms (GF109203X, 5 uM), tyrosine phosphorylation (genistein, 20 uM) and PI3 kinase (wortmannin, 100 nM and LY294002, 50 uM) were evaluated. In all experiments 9%/60 cpm cyclic stretch for 3 hours induced VEGF mRNA expression. Inhibition of ERK1/2 utilizing PD98059 had little effect on either basal or stretch-induce expression of VEGF. […] LY294002 and wortmannin inhibited stretched induced VEGF mRNA expression by 85±20% (p=0.039) and 96±25% (p=0.035), respectively.
Cell culture: Primary cultures of bovine retinal pericytes (BRPC) were isolated by homogenization and a series of filtration steps. BRPC were cultured in DMEM containing 5.5 mM glucose and 20% FBS. The cells were maintained in 5% CO2 at 37 °C and media were changed every three days. Cells were characterized for their homogeneity by immunoreactivity with monoclonal antibody 3G5. Cells were plated at a density of 2×10^4 cells/cm2 and passaged when confluent. The media were changed every three days and only cells from passages 2-5 were used for experiments.
(§1) Mechanical Stretch: For pericyte experiments, cells were plated on 6-well flexiblebottom culture plates coated with collagen (Flexcell Corp.,Mckeepsport, Pa.). After 2 days, media were changed to DMEM containing 1% calf serum and the cells incubated overnight. Cells were then subjected to uniform radial and circumferential strain in 5% CO2 at 37° C. using a computer-controlled, vacuum stretch apparatus (Flexcer Cell Strain Unit; Flexcel Corp.). A physiologic stretch frequency of 60 cpm and 3-20% prolongation of elastomer bottomed plates were used as previously described.
RNA Extraction: RNA was extracted using the guanidinium thiocynate method. RNA purity was determined by the ratio of optical density (OD) measured at 260 & 280 nm and RNA quantity was estimated using OD measured at 260 nm.
Northern Blot Analysis: Northern blot analysis was performed on 15 μg total RNA per lane after 1% agarose-2M formaldehyde gel electrophoresis and subsequent capillary transfer to Biodyne nylon membranes (Pall BioSupport, East Hills, N.Y.). Membranes underwent ultraviolet crosslinking using a UV Stratalinker 2400 (STRATAGENE, La Jolla, Calif.). Radioactive probes were generated using Amersham Megaprime labeling kits (Buckinghamshire, England) and 32PdCTP (NEN Life Science Products Inc., Boston, Mass.). Blots were pre-hybridized, hybridized and washed 4 times in 0.5×SSC, 5% SDS at 65 °C for 1 hour in a rotating hybridization oven (Robbins Scientific Corporation, Sunnyvale, Calif.). All signals were analyzed using a computing PhosphorImager with ImageQuant software analysis (Molecular Dynamics, Sunnyvale, Calif.). […]

ERK1/2 = test: Stretch-induced ERK1/2 phosphorylation in retinal pericytes; format: cell-based, bovine
Method: To determine what pathways were activated in retinal pericytes exposed to cardiac profile cyclic stretch, ERK phosphorylation, PI3 kinase activity and Akt phosphorylation were evaluated. Stretch induced a rapid increase in ERK 1/ 2 phosphorylation which was initially evident after 2 minutes, maximal at 5 min (ERK1=20-fold; ERK2=8.9-fold increase) and still maintained above baseline even after 60 min (ERK1=6.3-fold; ERK2=4.5-fold).
Further confirmation that stretch-induced ERK1/2 activation was not involved in mediating stretch-induced VEGF expression was obtained by assaying ERK1/2 phosphorylation after exposure to the inhibitors described herein. The inhibitor response for stretch-induced ERK1/2 phosphorylation was opposite that observed for stretch-induced VEGF expression. Stretch-induced ERK1/2 phosphorylation was reduced by inhibition of MEK1 (85+10.8%, 88+7.1%, p<0.05) or classical/novel PKC (83+23%, 84+7.1% p<0.05) but relatively unaffected by inhibition of PI3 kinase or tyrosine phosphorylation. Adenovirus infection with dominant negative ERK, wild type active ERK63 or b-galactosidase control had no effect on stretch-induced VEGF expression.
Mechanical Stretch: For pericyte experiments, cells were plated on 6-well flexiblebottom culture plates coated with collagen (Flexcell Corp.,Mckeepsport, Pa.). […]

Akt = test: Stretch-induced Akt phosphorylation in retinal pericytes; format: cell-based, bovine; conditions: cyclic stretch
Method: The mechanism of stretch-induced Akt phosphorylation was evaluated using two PI3 kinase inhibitors (LY294002 and wortmannin), the MEK1 inhibitor PD98059 and the tyrosine kinase inhibitor genistein.
as §1
ERK1/2 and Akt phosphorylation: Cells were washed with cold PBS and lysed in 1X Laemmli buffer containing protease inhibitors as described above. Cell lysates were heated to 95 °C for 2 min and equal volume of lysates were subjected to SDS-PAGE under reducing conditions. The blots were incubated with anti-phosphospecific ERK1(p44)/ERK2(p42) or anti-phosphospecific Akt antibody (New England Biolabs, Beverly, Ma.). Lane loading differences were normalized by reblotting with non-phosphorylation-specific (total) anti ERK1 antibody (Santa Cruz Biological) or anti-total Akt antibody(New England Biolabs).

PKC-zeta = test: Stretch-induced PKC-zeta activity in retinal pericytes; format: cell-based, bovine; conditions: 15 minutes of 9% cyclic stretch

In the case of `O=c1cc(N2CCOCC2)oc2c(-c3ccccc3)cccc12` [LY294002], the “effect on stretch-induced VEGF mRNA expression” value (VEGF mRNA) is reported as “inhibitory effect”, the “effect on basal VEGF mRNA expression” value (VEGF mRNA) is reported as “without significantly altering” and the “effect on stretch-induced ERK1/2 phosphorylation” value (ERK1/2) is reported as “lack of response”. For the same molecule, the “effect on stretch-induced Akt phosphorylation” value (Akt) was “inhibitory effect”.

In the case of `COC[C@H]1OC(=O)c2coc3c2[C@@]1(C)C1=C(C3=O)[C@@H]2CCC(=O)[C@@]2(C)C[C@H]1OC(C)=O` [wortmannin], the “effect on stretch-induced VEGF mRNA expression” value (VEGF mRNA) is reported as “inhibitory effect”, the “effect on basal VEGF mRNA expression” value (VEGF mRNA) is reported as “without significantly altering” and the “effect on stretch-induced ERK1/2 phosphorylation” value (ERK1/2) is reported as “lack of response”. The “effect on stretch-induced Akt phosphorylation” value (Akt) was “inhibitory effect” and the “effect on stretch-induced PKC-zeta activity” value (PKC-zeta) was “completely inhibited”.

Source: patent US20020091082A1, “Methods of modulating symptoms of hypertension” (priority 2000, published 2002)
